Among the data in US20160024193A1 (AC IMMUNE S A, published 2016) are binding values, retold here.

These are yes or no findings as the source states them, for the method shown.

Assay [1] concerns the target T1, Non-phospho. (not fully specified; printed as Biotin - linker - GDTSPRHLSNVSSTGSID; reading uncertain).
T1 construct: also called non-phosphorylated biotinylated Tau 401-418 peptide
T1 peptide: {Biotin-linker}-GDTSPRHLSNVSSTGSID
Nature of the assay: ELISA: 20 nM biotinylated peptide captured on Neutravidin-coated plate, IgG at 0.01, 0.1, 1, 10 and 100 nM, anti-human-peroxidase/TMB, absorbance 450 nm [D00008 Fig. 4C – 4D; D00009 Fig. 4E].

Assay [2] concerns the target T1, Non-phospho. In words: ELISA: plate coated with 5 µg/ml IgG, 10 nM biotinylated peptide in solution, streptavidin-peroxidase/TMB, absorbance 450 nm. The procedure:
FIG. 3. Binding of immobilized IgG antibodies to Tau-derived biotinylated peptides containing pS404 and/or pS409 as measured by ELISA. […] 10 nM of the biotinylated peptides shown in FIG. 3, and 5 μg/ml IgG, were used.
Specificity of the top five clones for phosphoserine 404 and phosphoserine 409 was also assessed by ELISA. In one experiment (FIG. 3), Nunc maxisorp microplates were coated with 5 μg/ml IgG in coating buffer (sodium carbonate pH9.6) for 70 minutes at ambient temperature. Non-specific binding sites were blocked with BBT for a minimum of 2 hours then the plates washed and 10 nM biotinylated peptide in BBT added. After 1.5 hours bound peptide was detected by a 65 minute incubation with peroxidase-conjugated Streptavidin and detection with TMB as described above. […] The peptides synthesized and used in this experiment (which correspond to amino acids 401-418 of full-length Tau) have the following amino acid sequences (Table B): […]

Assay [3] has as its target T2, Non-phospho.
T2 sequence (peptide, N-terminal Biotin - linker): GDTSPRHLSNVSSTGSID
Nature of the assay: ELISA: 20 nM biotinylated peptide captured on Neutravidin-coated plate, IgG at 0.01, 0.1, 1, 10 and 100 nM, anti-human-peroxidase/TMB, absorbance 450 nm [D00008 Fig. 4C – 4D; D00009 Fig. 4E]. (An ELISA detects its analyte on a solid surface through an enzyme-linked reagent.)

Assay [4] concerns the target T2, Non-phospho. In words: ELISA: plate coated with 5 µg/ml IgG, 10 nM biotinylated peptide in solution, streptavidin-peroxidase/TMB, absorbance 450 nm.

B1: 5202.4 (hIgG1 antibody) (antibody, V domains shown)
VH: EVQLVQSGAEVKKPGSSVKVSCKASGYTFTDYYMNWVRQAPGQGLEWIGDINPNRGGTTYNQKFKGRVTITVDKSTSTAYMELSSLRSEDTAVYYCASYYAVGYWGQGTTVTVSS
VL: DIVMTQTPLSLPVTPGEPASISCRSSQSLVHSHGKTYLHWYLQKPGQSPQLLIYKVSNRFSGVPDRFSGSGSGTDFTLKISRVEAEDVGVYFCSQTAHFPYTFGGGTKVEIKR
Turning to B1, the binding entry with Non-phospho. [1] is recorded as “no binding (tested: 100 nM)”; with Non-phospho. [2], “no binding (tested: 10 nM)”.

B2: TAM19 IgG1 (antibody, V domains shown)
VH: EVQLVQSGAEVKKPGSSVKVSCKASGYTFTDYYMNWVRQAPGQGLEWIGDINPNRGGTTYNQKFKGRVTITVDKSTSTAYMELSSLRSEDTAVYYCASYYAVGYWGQGTTVTVSS
VL: DIVMTQTPLSLPVTPGEPASISCRSSQSLRHSHGKTYLHWYLQKPGQSPQLLIYKVSHRFSGVPDRFSGSGSGTDFTLKISRVEAEDVGVYFCSQTRHFPYTFGGGTKVEIKR
In the case of B2, the binding entry was “no binding (tested: 100 nM)” in the assay with Non-phospho. [3] and “no binding (tested: 10 nM)” with Non-phospho. [4].

B3: TAM2 IgG1 (antibody, V domains shown)
VH: EVQLVQSGAEVKKPGSSVKVSCKASGYTFTDYYMNWVRQAPGQGLEWIGDINPNRGGTTYNQKFKGRVTITVDKSTSTAYMELSSLRSEDTAVYYCASYYAVGYWGQGTTVTVSS
VL: DIVMTQTPLSLPVTPGEPASISCRSSQSLVHSRGKTYLHWYLQKPGQSPQLLIYKVSNRFFGVPDRFSGSGSGTDFTLKISRVEAEDVGVYFCSQTARFPYTFGGGTKVEIKR
Turning to B3, the results for the binding entry with Non-phospho. [3] and with Non-phospho. [4] were “no binding (tested: 100 nM)” and “no binding (tested: 10 nM)”, respectively.

B4: TAM1 IgG1 (antibody, V domains shown)
VH: EVQLVQSGAEVKKPGSSVKVSCKASGYTFTDYYMNWVRQAPGQGLEWIGDINPNRGGTTYNQKFKGRVTITVDKSTSTAYMELSSLRSEDTAVYYCASYYAVGYWGQGTTVTVSS
VL: DIVMTQTPLSLPVTPGEPASISCRSSQSLVHRNGKTYLHWYLQKPGQSPQLLIYKVSNRFSGVPDRFSGSGSGTDFTLKISRVEAEDVGVYFCSQTARFPYTFGGGTKVEIKR
In the case of B4, the binding result is “no binding (tested: 100 nM)” with Non-phospho. [3] and “no binding (tested: 10 nM)” in the assay with Non-phospho. [4].

B5: TAM9 IgG1 (antibody, V domains shown)
VH: EVQLVQSGAEVKKPGSSVKVSCKASGYTFTDYYMNWVRQAPGQGLEWIGDINPNRGGTTYNQKFKGRVTITVDKSTSTAYMELSSLRSEDTAVYYCASYYAVGYWGQGTTVTVSS
VL: DIVMTQTPLSLPVTPGEPASISCRSSQSLVRSHGKTYLHWYLQKPGQSPQLLIYKVSNRFKGVPDRFSGSGSGTDFTLKISRVEAEDVGVYFCSQTAQFPYTFGGGTKVEIKR
With B5, the values for the binding result in the assay with Non-phospho. [3] and with Non-phospho. [4] were “no binding (tested: 100 nM)” and “no binding (tested: 10 nM)”, respectively.
